PubChem BioAssay AID743454, Peter MacCallum Cancer Centre | 2014
Purpose: 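Search for knock-downs that restore vorinostat killing in resistant colon cancer cells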 (primary screen). System: human HCT116-VR colon cancer cells, selected for vorinostat resistance. Reagent: siRNA pool against human genes, 40 nM siRNA pool. Time to read-out: vorinostat for 24 h, read-out about 72 h after transfection. Challenge: vorinostat at 2.5 µM final. Measured: 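Cell viability by CellTiter-Fluor and caspase 3/7 activity by luminescence, each scaled to mock wells per plate, duplicates averaged, then robust z-scored over all plates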. Reading the numbers: viability robust z-score: higher = more viable cells than screen typical; caspase robust z-score: higher = more caspase 3/7 activity than screen typical. Active means: 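Hits are knock-downs in viability class RV1/RV2 or caspase class CA1/CA2, excluding ones that killed cells in the no-drug cell-count arm; hits then retested with single siRNAs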.
Shown is one part, drawn at random, of about 18,000 reagents tested. 450 of them (2.5%) were called active. 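Single biological run; no consistent viability z cut-off exists, so the class columns, not z-scores, define the calls.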

Gene	viability hit class	caspase hit class	viability robust z-score	caspase robust z-score	call
IFNA17 (GeneID 3451)	no change	no change	0.17	-0.28	inactive
NXF3 (GeneID 56000)	no change	no change	0.88	0	inactive
CYSLTR1 (GeneID 10800)	no change	no change	0.26	0.22	inactive
CAMK2N2 (GeneID 94032)	no change	no change	0.31	1.02	inactive
TEFM (GeneID 79736)	no change	no change	-0.3	-0.67	inactive
SELENOW (GeneID 6415)	no change	no change	-0.51	0.05	inactive
GLP2R (GeneID 9340)	no change	no change	0.82	-0.58	inactive
LRATD2 (GeneID 157638)	no change	no change	-1.64	0.24	inactive
CNBD1 (GeneID 168975)	no change	no change	0.33	-0.17	inactive
ANKRD34A (GeneID 284615)	no change	no change	0.25	-0.44	inactive
ACSS3 (GeneID 79611)	no change	no change	0.26	0.24	inactive
BIRC5 (GeneID 332)	no change	no change	-2.6	0.06	inactive
FBXL21P (GeneID 26223)	no change	no change	-0.26	-0.98	inactive
AAK1 (GeneID 22848)	no change	no change	-1.34	0.2	inactive
ZBTB24 (GeneID 9841)	no change	no change	-0.25	0.86	inactive
NSD3 (GeneID 54904)	no change	no change	-0.96	-0.08	inactive
RSPO2 (GeneID 340419)	no change	no change	1.64	1.34	inactive
ATP6V1E1 (GeneID 529)	no change	no change	-0.3	-0.94	inactive
RCAN2 (GeneID 10231)	no change	no change	-0.01	1.66	inactive
DLX6 (GeneID 1750)	no change	no change	0.28	1.47	inactive
DNAAF5 (GeneID 54919)	no change	no change	-0.26	0.02	inactive
NAT2 (GeneID 10)	no change	no change	0.72	-0.09	inactive
SNRK (GeneID 54861)	no change	no change	-0.36	2.68	inactive
CFL1 (GeneID 1072)	no change	no change	-1.92	2.33	inactive
MGST1 (GeneID 4257)	no change	no change	-0.18	1.17	inactive
FYB2 (GeneID 199920)	no change	no change	-0.85	4.21	inactive
CHSY3 (GeneID 337876)	no change	no change	0.85	0.18	inactive
CNKSR1 (GeneID 10256)	no change	no change	-4.6	0.4	inactive
RBM7 (GeneID 10179)	no change	no change	-1.32	0.78	inactive
KRTAP20-1 (GeneID 337975)	no change	no change	0.18	0.26	inactive
TRIM17 (GeneID 51127)	no change	no change	-0.55	2.14	inactive
FABP1 (GeneID 2168)	no change	no change	0.85	-0.8	inactive
ITM2A (GeneID 9452)	no change	no change	-0.22	1.12	inactive
GABRB2 (GeneID 2561)	RV2 (reduced viability)	no change	-3.12	1.97	active
NT5DC1 (GeneID 221294)	no change	no change	0.53	0.38	inactive
ANAPC15 (GeneID 25906)	no change	no change	0.96	2.02	inactive
OTOG (GeneID 340990)	no change	no change	-0.47	0.99	inactive
IRF3 (GeneID 3661)	no change	no change	1.31	-0.7	inactive
DUSP28 (GeneID 285193)	no change	no change	1.08	4.56	inactive
ERBB2 (GeneID 2064)	no change	no change	0.29	-0.22	inactive
ITGB1 (GeneID 3688)	no change	no change	-1.7	2.14	inactive
FOXL1 (GeneID 2300)	no change	CA2 (caspase activation)	-1.82	6.23	active
ABCB1 (GeneID 5243)	no change	no change	-0.12	2.21	inactive
ASH1L (GeneID 55870)	no change	no change	-0.35	0.6	inactive
GPR143 (GeneID 4935)	no change	no change	0.94	-0.26	inactive
OR51F2 (GeneID 119694)	no change	no change	-1.38	0.1	inactive
ABCG8 (GeneID 64241)	no change	no change	0.57	0.54	inactive
MC4R (GeneID 4160)	no change	no change	1.46	-0.22	inactive
UBR5 (GeneID 51366)	no change	no change	-2.48	3.77	inactive
RAB2B (GeneID 84932)	no change	no change	0.72	-0.64	inactive
CEACAM16 (GeneID 388551)	no change	no change	1.46	0.94	inactive
CBLL2 (GeneID 158506)	no change	no change	0.18	-0.43	inactive
NHSL3 (GeneID 57648)	no change	no change	0.23	-1	inactive
FOXA3 (GeneID 3171)	no change	no change	1.23	-0.25	inactive
ZNF692 (GeneID 55657)	no change	no change	-0.01	-0.82	inactive
TBC1D8B (GeneID 54885)	no change	no change	0.34	1.01	inactive
SULT4A1 (GeneID 25830)	no change	no change	-0.54	-0.21	inactive

An excerpt from above, reduced to “viability hit class”.
NT5DC1 (GeneID 221294) = no change
ANAPC15 (GeneID 25906) = no change
OTOG (GeneID 340990) = no change
IRF3 (GeneID 3661) = no change
DUSP28 (GeneID 285193) = no change
ERBB2 (GeneID 2064) = no change
ITGB1 (GeneID 3688) = no change
